This note sets out measurements from paper PMC11574245.

By UniProt entry, the sequences of proteins in these tests, tags left out. Residues count along the entry.
UniProt P0DTC8, residues 16-121: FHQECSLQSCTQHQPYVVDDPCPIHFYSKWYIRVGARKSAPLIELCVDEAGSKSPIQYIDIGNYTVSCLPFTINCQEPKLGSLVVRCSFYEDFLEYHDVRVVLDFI
UniProt P01024, residues 23-1663: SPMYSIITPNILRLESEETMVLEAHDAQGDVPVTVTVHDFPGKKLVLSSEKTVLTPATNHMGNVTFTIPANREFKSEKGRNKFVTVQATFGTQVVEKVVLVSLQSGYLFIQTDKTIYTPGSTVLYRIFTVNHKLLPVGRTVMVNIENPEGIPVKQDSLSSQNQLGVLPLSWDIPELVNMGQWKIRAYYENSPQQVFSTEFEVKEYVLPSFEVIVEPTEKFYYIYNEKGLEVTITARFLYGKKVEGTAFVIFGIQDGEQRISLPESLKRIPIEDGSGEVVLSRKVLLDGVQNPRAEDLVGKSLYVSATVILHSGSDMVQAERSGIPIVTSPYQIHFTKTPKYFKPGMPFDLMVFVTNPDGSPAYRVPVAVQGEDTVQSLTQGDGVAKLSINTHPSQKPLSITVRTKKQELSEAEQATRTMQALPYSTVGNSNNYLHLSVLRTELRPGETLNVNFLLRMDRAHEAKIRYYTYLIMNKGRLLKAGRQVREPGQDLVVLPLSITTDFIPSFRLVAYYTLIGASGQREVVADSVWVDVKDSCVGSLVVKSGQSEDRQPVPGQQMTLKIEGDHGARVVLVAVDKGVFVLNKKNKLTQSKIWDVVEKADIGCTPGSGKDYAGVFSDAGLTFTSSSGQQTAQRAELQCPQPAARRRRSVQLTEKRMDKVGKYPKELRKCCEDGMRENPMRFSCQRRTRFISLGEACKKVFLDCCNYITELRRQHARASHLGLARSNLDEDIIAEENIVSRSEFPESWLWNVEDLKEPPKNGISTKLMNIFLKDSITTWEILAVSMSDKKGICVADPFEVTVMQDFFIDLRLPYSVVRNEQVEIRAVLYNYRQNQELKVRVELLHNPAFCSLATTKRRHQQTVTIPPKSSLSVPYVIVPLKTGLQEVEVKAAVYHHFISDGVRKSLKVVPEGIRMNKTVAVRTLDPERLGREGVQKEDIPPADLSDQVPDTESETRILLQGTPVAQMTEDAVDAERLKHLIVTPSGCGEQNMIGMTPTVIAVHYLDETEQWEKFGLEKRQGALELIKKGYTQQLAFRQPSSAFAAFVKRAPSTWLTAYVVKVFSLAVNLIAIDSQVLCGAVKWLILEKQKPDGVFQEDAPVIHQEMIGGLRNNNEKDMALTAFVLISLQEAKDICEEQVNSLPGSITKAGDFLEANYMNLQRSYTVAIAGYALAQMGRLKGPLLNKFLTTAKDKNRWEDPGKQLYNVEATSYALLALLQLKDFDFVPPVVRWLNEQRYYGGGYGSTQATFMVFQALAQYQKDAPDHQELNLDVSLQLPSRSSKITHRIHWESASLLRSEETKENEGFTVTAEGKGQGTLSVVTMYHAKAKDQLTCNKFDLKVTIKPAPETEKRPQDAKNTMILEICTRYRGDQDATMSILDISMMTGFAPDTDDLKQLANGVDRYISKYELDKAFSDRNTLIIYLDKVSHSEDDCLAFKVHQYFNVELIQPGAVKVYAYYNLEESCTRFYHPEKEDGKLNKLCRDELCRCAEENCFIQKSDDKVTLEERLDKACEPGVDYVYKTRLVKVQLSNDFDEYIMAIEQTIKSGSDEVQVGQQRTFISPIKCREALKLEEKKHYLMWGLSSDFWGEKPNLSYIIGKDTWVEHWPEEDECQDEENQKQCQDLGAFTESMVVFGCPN

No constants are given. Whether binding was seen depends on the method and setting. In cells and extracts the contact can be indirect. These calls come from enrichment with a bait or labelling near it, and not all partners need be listed.

The target in this experiment is SARS-CoV-2 ORF8 (bait of the immunoprecipitation coupled with mass spectrometry) (SARS-CoV-2) (UniProt P0DTC8). The experiment is described as follows: affinity purification with mass spectrometry.

“complement C3 (from UniProt P01024 23-1663)”: the binding entry was “binds”.
